From US12077555B2, “STAT degraders and uses thereof” (Kymera Therapeutics, Inc., priority 2019, dated 2024)
Read-outs that look alike come from different tables or passages of the source. The match of structure and compound is tentative.

Chains of the proteins cited; added tags and fusions are not shown.
UniProt P40763, whole entry: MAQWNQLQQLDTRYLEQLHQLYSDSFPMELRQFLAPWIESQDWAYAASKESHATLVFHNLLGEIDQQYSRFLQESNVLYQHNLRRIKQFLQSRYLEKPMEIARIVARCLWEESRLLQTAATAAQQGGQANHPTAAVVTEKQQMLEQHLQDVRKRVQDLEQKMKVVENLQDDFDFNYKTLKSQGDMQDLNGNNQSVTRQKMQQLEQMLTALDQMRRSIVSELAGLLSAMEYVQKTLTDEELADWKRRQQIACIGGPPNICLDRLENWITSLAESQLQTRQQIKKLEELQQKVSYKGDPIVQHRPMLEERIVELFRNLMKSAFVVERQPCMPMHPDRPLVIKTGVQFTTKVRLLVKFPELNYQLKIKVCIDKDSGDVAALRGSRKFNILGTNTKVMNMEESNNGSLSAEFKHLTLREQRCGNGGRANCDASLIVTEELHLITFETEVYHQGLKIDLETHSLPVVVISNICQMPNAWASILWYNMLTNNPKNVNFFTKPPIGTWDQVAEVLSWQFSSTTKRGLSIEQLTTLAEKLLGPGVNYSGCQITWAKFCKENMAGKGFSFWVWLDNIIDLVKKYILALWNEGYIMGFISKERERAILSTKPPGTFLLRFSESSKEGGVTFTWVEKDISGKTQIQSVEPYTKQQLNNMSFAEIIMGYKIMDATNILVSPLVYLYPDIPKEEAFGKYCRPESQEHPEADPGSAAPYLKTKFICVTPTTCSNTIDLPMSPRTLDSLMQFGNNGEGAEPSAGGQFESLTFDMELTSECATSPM

Key:
DEL cells = assay: CellTiter-Glo cell viability, DEL; details: for CTG (% Max inh), Day 4: ALCL (ALK+)
STAT3 [1] = target: STAT3 (Homo sapiens, UniProt P40763); assay: Quantitation of STAT3 degradation in A549 cells by Western blot; assay type: cell-based
Description: Degradation of total cellular STAT3 protein in A549 was quantitatively measured using SDS-PAGE and Western blot analysis. A549 cells (5×10^5 cells/well, 2 mL) were seeded into 6-well plates and were incubated in the incubator under 5% CO2 overnight to reach ˜80% confluency. The next day, the culture medium was changed with 1 ml fresh media. Then, 1 mL of media containing 2× compound solution was added into the well to make the final concentration of 30 μM, 10 μM, 3 μM, 1 μM, 0.3 μM and 0 μM (DMSO). The media was thoroughly mixed and incubated for 24 hours at 37° C. under 5% CO2. Then, the culture media was removed from the assay plates and the cells were washed with ice-cold PBS twice. To prepare cell lysates, 200 ul pre-chilled RIPA lysis buffer (Boston BioProducts BP-115D) with protease/phosphatase inhibitor (Roche 05892791001/Roche 04906837001) was added directly into the well to lyse the cells for 20 minutes on ice. The cell lysates were then transferred to centrifuge tubes. Insoluble part of lysates was removed by centrifuging the lysates at 13000 rpm for 20 minutes. The supernatant was then collected and mixed with 5× loading buffer (Beyotime Bio P0015) to make the final samples for SDS-PAGE analysis. The samples were heated at 100° C. for 10 minutes and cool to room temperature before centrifuging at 13000 rpm for 20 minutes. To analyze the samples by SDS-PAGE, 10 ul samples were loaded onto SDS-PAGE gel (Novex, WG1403BOX) and the SDS-PAGE gel was run for 20 minutes at 80 V, then at 120 V for 1.5 hours. The SDS-PAGE gel was then transferred to nitrocellulose membrane using the wet-transfer method at 250 mA for 1.5 hours. The membrane was then blocked with LI-COR blocking buffer (LI-COR, 927-50000) for 1 hour and was probed with primary antibody (mouse anti-STAT3 (124H6) (CST #91395) 1:2000 or mouse anti-beta-Actin (8H10D10) (CST #3700) 1:10000) at 4° C. overnight. The membrane was then washed three times with TBST buffer and probed with secondary antibody (anti-mouse IgG (LI-COR, 926-68070), 1:5000) for 1 hour at room temperature. The membrane was then scanned on a LI-COR Odyssey instrument and was quantified using Image Studio Version 5.2. Concentration at 50% degradation (DC50) was calculated by fitting dose dependent degradation data using a sigmoidal equation using GraphPad Prism Version 8.0.

PD-L1 = assay: STAT3 RT-qPCR assay, PD-L1 mRNA; details: SU-DHL-1 cells; for STAT3-dependent gene expression of PDL-1: FIG. 5A, FIG. 15
Description: (§1) SU-DHL-1 cells were treated with compounds for a designed time. 0.3-0.6 mL lysis buffer with 2-mercaptoethanol was added to the collected cell pellet or monolayer cells. The cells were vortexed until the cell was dispersed and the cells appear lysed. One volume of 70% ethanol was added to each volume of cell homogenate and vortex. 700 μL of the sample was transferred to the spin cartridge and centrifuged at 12000 g for 15s at RT. The flow-through was discarded and the process repeated until the entire samples had been processed. 700 ul wash buffer I was added to the spin cartridge and centrifuged at 12000 g for 15s at RT and the flow-through was discarded. 500 μL wash buffer II with ethanol was added to the spin cartridge and centrifuged at 12000 g for 15s at RT and the flow-through was discarded. The process was then repeated. The spin cartridge was centrifuged at 12000 g for 2 min to dry the membrane with bound RNA. 30-100 μL RNase-free water was added to the center of the spin cartridge and incubated for 1 min at RT. The spin cartridge was centrifuged at 12000 g for 2 min to elute the RNA from the membrane into the recovery tube and the purified RNA was stored. The concentration of the RNA was quantitated using Nano-Drop. cDNA was formed from the RNA by reverse transcription and qPCR of the cDNA with primer of the gene of interest and housekeeping gene was preformed using the volumes below: […]

SUP-M2 cells = assay: CellTiter-Glo cell viability, SUP-M2; details: for CTG (% Max inh), Day 4 / IC50: SUP-M2, ALCL (ALK+), Day 4; for IC50: read-out: CTG, IC50 μM, Day 4
SU-DHL-1 tumor cells = assay: Xenograph tumor study, SU-DHL-1; details: SUDHL-1 xenograph, 2.5-30 mg/kg, 2 days on/5 days off
Description: Animals: 50 6-8 week old female NOD SCID mice weighing 18 to 20 grams. 25 mice were used in each study.
Method for Tumor Inoculation: Each mouse was inoculated subcutaneously with SU-DHL-1 tumor cells (1×107+Matrigel) or SUP-M2 tumor cells (5×106+Matrigel) in 0.1 ml of RPMI1640 medium supplemented with 10% FBS, 100 U/ml penicillin and […] streptomycin for tumor development. Mice were then assigned to groups such that the mean tumor volume was the same for each treatment group and time point. […] Vehicle was 25% HP-β-CD in water adjusted to pH 7.4.
Measurement Parameters: Study animals were monitored not only for tumor growth but also behavior such as mobility, food and water consumption (by cage side checking only), body weight (BW), eye/hair matting and any other abnormal effect. Any mortality and/or abnormal clinical signs was recorded. Sponsor was notified immediately if abnormal clinical signs, or if tolerability issues were observed. Body weights of all animals were measured and recorded twice per week. The measurement of tumor size was conducted twice weekly with a caliper and recorded. The tumor volume (mm3) was estimated using the formula: TV=a×b2/2, where “a” and “b” are long and short diameters of a tumor, respectively.

STAT3 [2] = assay: STAT3 RT-qPCR assay, STAT3 mRNA; details: SU-DHL-1 cells, FIG. 5A, FIG. 15
Description: as §1, with “The spin cartridge was centrifuged at 12000 g for 2 min to elute the RNA from the membrane into the recovery tube and the purified RNA was stored.” left out

For `Cn1c(=O)n(C2CCC(=O)NC2=O)c2ccc(CCCCCCC(=O)N3CC[C@H]4CC[C@@H](C(=O)N[C@@H](CCC(N)=O)C(=O)NC(c5ccccc5)c5ccccc5)N4C(=O)[C@@H](NC(=O)c4cc5cc(C(=O)P(=O)(O)O)ccc5[nH]4)C3)cc21` (stereo partly shown), the “CTG (% Max inh), Day 4” value (DEL cells; Day 4) was “(>95) %”, the IC50 (DEL cells; read-out: CTG, IC50 μM, Day 4, ALCL (ALK+), Day 4) was 0.11 µM and the DC50 (STAT3 [1]; read-out: A549 DC50, 24 hours, tested up to 30 μM or 10 μM) was under 30000 nM. The “STAT3-dependent gene expression of PDL-1” value (PD-L1) was “downregulates”, the “CTG (% Max inh), Day 4” value (SUP-M2 cells) was “(>95) %” and the IC50 (SUP-M2 cells) was 0.61 µM. For the same molecule, the “tumor volume, 5 days” value (SU-DHL-1 tumor cells; IP) was “A (A<500 mm^3)”, the “tumor volume, 10 days” value (SU-DHL-1 tumor cells; IP) was “A (A<500 mm^3)” and the “tumor volume, 15 days” value (SU-DHL-1 tumor cells; IP) was “A (A<500 mm^3)”. For the same molecule, the “tumor volume, 20 days” value (SU-DHL-1 tumor cells; IP) was “A (A<500 mm^3)” and the “STAT3-dependent gene expression of STAT3” value (STAT3 [2]) was “downregulates”.
In the case of `Cc1ncsc1-c1ccc([C@H](C)NC(=O)[C@@H]2C[C@@H](O)CN2C(=O)[C@@H](NC(=O)CCCCc2ccc(CO[C@H](C)[C@H](CCC(N)=O)NC(=O)[C@@H]3Cc4cccc5c4N3C(=O)[C@@H](NC(=O)c3cc4cc(C(=O)P(=O)(O)O)ccc4[nH]3)CC5)cc2)C(C)(C)C)cc1` [Compound I-227], the “CTG (% Max inh), Day 4” value (DEL cells; Day 4, tested form: diammonium) is reported as “(>95) %”, the cell proliferation (DEL cells; FIG. 16, tested form: diammonium) is reported as “inhibit” and the IC50 (DEL cells; read-out: CTG, IC50 μM, Day 4, ALCL (ALK+), Day 4, tested form: diammonium) is reported as 0.038 µM. The DC50 (STAT3 [1]; read-out: A549 DC50, 24 hours, tested up to 30 μM or 10 μM, tested form: diammonium) was under 30000 nM, the “STAT3-dependent gene expression of PDL-1” value (PD-L1; tested form: diammonium) was “downregulates” and the IC50 (PD-L1; read-out: mRNA (RT-qPCR) IC50 (μM), 24 hr PD-L1, 24 hr, tested form: diammonium) was 0.03 µM. The “CTG (% Max inh), Day 4” value (SUP-M2 cells; tested form: diammonium) was “(>95) %”, the cell proliferation (SUP-M2 cells; SUP-M2, FIG. 16, tested form: diammonium) was “inhibit” and the IC50 (SUP-M2 cells; tested form: diammonium) was 0.125 µM. The “tumor volume, 5 days” value (SU-DHL-1 tumor cells; IV, tested form: diammonium) was “A (A<500 mm^3)”, the “tumor volume, 10 days” value (SU-DHL-1 tumor cells; IV, tested form: diammonium) was “B (B=500-1000 mm^3)” and the “tumor volume, 15 days” value (SU-DHL-1 tumor cells; IV, tested form: diammonium) was “C (C=>1000 mm^3)”. The “tumor volume, 20 days” value (SU-DHL-1 tumor cells; IV, tested form: diammonium) was “C (C=>1000 mm^3)” and the “STAT3-dependent gene expression of STAT3” value (STAT3 [2]; tested form: diammonium) was “downregulates”.
